These are literature values, as cited in patent publication EP1144423B1, “BIS-TERPYRIDINE-PLATINUM(II) COMPLEXES” (ISIS INNOVATION LIMITED, priority 1999, dated 2000).

Like-named read-outs stand apart in the source and are kept apart here.

The data set concerns poly[d(A-T)2]. Particulars: cited from earlier work.

As for `Cc1cc[n+]([Pt-2]23[n+]4ccccc4-c4cccc([n+]42)-c2cccc[n+]23)cc1.F[B-](F)(F)F.F[B-](F)(F)F` [4-Picoline-2,2':6',2"-terpyridine-platinum(II) bis-tetrafluoroborate], the site size result (most stable binding mode) is reported as “about 4 base pairs” and the site size entry (second binding mode) is recorded as “approximately 2 base pairs”.
